## Primary screen of a compound library

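Assay of Toxoplasma gondii numbers, read through their beta-galactosidase reporter with a colour substrate. Compounds at 50 µM. The record gives no direction; the compounds picked for IC50 retests had high values, so higher reads as fewer parasites. About 18,000 compounds were tested under these conditions; 0.94% (about 170) showed 50% or more at least once.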

Each number is a percent effect as filed. How 0% and 100% were set is not recorded. Most values in the screen are low, and negative values occur. Compounds were drawn at random from those tested, without regard to their results.

structure	effect
COCCNC(=O)CN1CCCC1c1ccsc1 (centres unmarked)	3.094
OC(c1cc2n(n1)CCN(Cc1ccoc1)C2)C1CC1 (centres unmarked)	1.452
COC(=O)c1ccc(NCc2cc[nH]n2)c(OC)c1	-3.303
O=C(NCC(=O)c1cccs1)c1ccon1	28.03
NC(c1ccccc1)C1(CO)CCOCC1 (centres unmarked)	-0.7595
NC(=O)C(c1ccccc1)N1CCCC1 (centres unmarked)	-0.5579
CCNC(=O)C(C)(C)CN	-24.16
CO[C@H]1CN(C(C)C)C[C@@H]1NC(=O)c1cnc[nH]1	-8.762
CC(C)c1cccc(NC(=O)CN2CCC(O)CC2)c1	8.09
CC(N)c1ccc(S(C)(=O)=O)cc1 (centres unmarked)	1.688
CCCSc1ccc(NC(=O)NCCN)cc1	15.81
Nc1cc(C2CCN(C(=O)Cc3ccsc3)CC2)no1	-0.3694
Cc1ocnc1C(=O)Nc1ncccc1Cl	-2.481
CC(N)c1coc2ccccc12 (centres unmarked)	7.036
O=C(CCN1CCC(O)(CO)C1)Nc1cccc(Cl)c1 (centres unmarked)	20.17
Cc1nccc(C(=O)NCC(C)(C)N2CCOCC2)n1	-16.7
CN1CCC(CCN)CC1	6.188
CN(C)C(=O)COC(=O)c1ccc2ncsc2c1	-15.78
Cc1cnc(N)nc1NCC(O)CN1CCCCC1 (centres unmarked)	10.92
CC(C)(C)OC(=O)NC(CN)C1CC1 (centres unmarked)	-22.69
CCSCC(C)N(C)C(=O)c1cccc2nn[nH]c12 (centres unmarked)	-7.146
O=C(c1cn[nH]c1)N1CCC(O)(c2ccccn2)CC1	-9.318
O=C(Cc1cccs1)N1CCC(Nc2cccnc2)C1 (centres unmarked)	-5.311
Cc1cnn(-c2ccc(C(C)N)cc2F)c1 (centres unmarked)	-1.941
Cc1cccnc1NCCNC1CSCCSC1	22.26
CCN(CC)S(=O)(=O)NCc1cccc(C#N)c1	1.645
CNC(C)c1ccc(S(C)(=O)=O)cc1 (centres unmarked)	2.194
CCNC(=O)C(C)NC(=O)c1ccc(OC)c(OC)c1 (centres unmarked)	-10.39
O=C(CCn1cccn1)N1CCN(c2nccs2)CC1	-4.2
CN(CC(=O)N(CC(F)(F)F)C1CCCC1)S(C)(=O)=O	3.955
Cc1cnn(CCNC(C)CC(N)=O)c1 (centres unmarked)	25.58
Cn1cc(Br)c(=O)c(NC(=O)c2cccc(C#N)c2)c1	11.44
CN1CCN(C(=O)c2cnn[nH]2)C(c2ccccc2)C1 (centres unmarked)	-4.18
O=C(CCn1cccn1)N1CCCCCC1	12.24
Cc1ccc2cccc(OCCNC(C)CO)c2n1 (centres unmarked)	-1.747
CC1CN(Cc2ccccc2)CC1=O (centres unmarked)	-14
CN(C)C(=O)CN(C)c1ncc(C(F)(F)F)cc1Cl	0.3926
CNS(=O)(=O)CCCNC(C)(C)c1nccs1	-8.556
Cc1nc(NC(=O)CCc2cccs2)n(C)n1	-7.776
O=C(c1ccc(Cn2cccn2)cc1)N1CCC1	4.54
CC(N)(CO)c1ccccc1 (centres unmarked)	1.107
NC(c1ccccc1)c1c[nH]cn1 (centres unmarked)	21.8
CCCNC(=O)C1CCCN1 (centres unmarked)	2.398
Cc1nn(CC(F)(F)F)c(C)c1N	3.306
CC(C#N)CNC(=O)Cc1ccccc1O (centres unmarked)	-5.796
NC(=O)CCNCc1ccc(Cl)c2cccnc12	-21.23
Cc1ccc2nc(CCN)oc2c1	-5.34
Cc1noc(C)c1CNC(=O)C1CCS(=O)(=O)C1 (centres unmarked)	-7.856
O=C(Nc1ccc2c(c1)C(=O)NC2=O)c1ccc(Br)o1	10.6
NS(=O)(=O)NCCCc1ccc(Br)cc1F	13.78
CCNc1nc(C)c(C(=O)NC(C)c2n[nH]c(=O)[nH]2)s1 (centres unmarked)	-21.96
Cc1ccc2c(c1)nc(CCN)n2C	13.61
CN1CCN(C(=O)C2CCCO2)c2ccccc2C1 (centres unmarked)	-5.103
COc1cc(F)cc(NCC(=O)NCc2ccco2)c1	-1.344
COC(=O)C(C)(C)CCN1CCC[C@@H]1CO	-2.152
CCn1c(C(N)=O)cc2ccccc21	-0.8921
O=C(NCCO)NC1CCS(=O)(=O)C1 (centres unmarked)	-9.302
CCCc1ncncc1C(=O)NC(CC)[C@H]1C[C@H](O)C1 (some centres unmarked)	10.19
Cc1nnc(NC(=O)c2ccc(C#N)cc2)s1	-17.21
CCN(CC)c1ccc(CNc2nc[nH]n2)cc1	-4.71
CN1CCC(=O)CC1c1ccccc1 (centres unmarked)	-21.09
N[C@@H]1CCO[C@H]1c1cncc(Br)c1	-2.1
OC1(CNCc2ccc(Br)c3cccnc23)CCOC1 (centres unmarked)	-5.184
CC(C)(C)c1cnnn1-c1nonc1N	6.039

For reference, 6 entries once more:

| structure | effect |
|---|---|
| `CC(C)(C)OC(=O)NC(CN)C1CC1` (centres unmarked) | -22.69 |
| `CN1CCN(C(=O)c2cnn[nH]2)C(c2ccccc2)C1` (centres unmarked) | -4.18 |
| `COCCNC(=O)CN1CCCC1c1ccsc1` (centres unmarked) | 3.094 |
| `CC(N)c1ccc(S(C)(=O)=O)cc1` (centres unmarked) | 1.688 |
| `Cc1nc(NC(=O)CCc2cccs2)n(C)n1` | -7.776 |
| `Nc1cc(C2CCN(C(=O)Cc3ccsc3)CC2)no1` | -0.3694 |

Data taken from ChEMBL document CHEMBL3988442, “University of Dundee, Small-Polar-MMV Screening Library” (2021).